The other results are listed elsewhere or left out. Shown are side measurements of this screen, not its main read-out; they come without a call. The list favours compounds with an active or inconclusive main result. The note in brackets gives the kind of curve behind each potency; many fits are weak.
Experiment: qHTS Assay for Modulators of Lamin A Splicing
Conditions: HeLa LMNA splicing GFP/RFP minigene ratio, 48 h
Summary of the method: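 S3 HeLa cells stably expressing lamin A-EGFP splicing minigene plus DsRed2, 600 cells/well, 48 h compound exposure at 37C. Laser-scanning cytometry; analysed as GFP (500-530 nm)/RFP (575-640 nm) total intensity ratio; 0.5% DMSO vehicle.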

[1] = measured here: GFP splicing reporter channel
[2] = measured here: RFP viability control channel

Row | SMILES | AC50 [1] | AC50 [2]
1 | N#Cc1ccc(CN2C(=O)c3ccccc3Sc3ccc(C(=O)OCc4ccco4)cc32)cc1 | 4.47 µM [rising, full curve, poor fit] | 0.251 µM [rising, full curve, poor fit]
2 | COc1ccc(OCc2nc(N)nc(Nc3ccc(C)cc3)n2)cc1 | 10 µM [rising, partial curve] | 11.2 µM [rising, single point]
3 | C=CCc1cccc(/C=N/NC(=O)CCC(=O)Nc2ccc(F)cc2)c1O | 12.6 µM [rising, single point] | 17.8 µM [rising, partial curve]
4 | Cc1nn(C)c(C(=O)Nc2ccn(C34CC5CC(CC(C5)C3)C4)n2)c1[N+](=O)[O-] |  | 35.5 µM [rising, single point]
5 | Cc1cccc(N2CCN(C(=O)CSCc3ccc(F)cc3)CC2)c1C | 11.2 µM [falling, partial curve] | 
6 | O=C(Cn1c(=O)oc2cc(S(=O)(=O)N3CCCC3)ccc21)N1CCN(c2ccccc2)CC1 |  | 1.78 µM [rising, partial curve, poor fit]
7 | CCc1cc(/C(Cc2csc(C)n2)=N/O)c(O)cc1O |  | 6.31 µM [rising, full curve]
8 | Cc1ccc(N2C(=O)N(CC(=O)Nc3ccc(C)cc3C)C(=O)C2C)cc1 (stereo unspecified) |  | 10 µM [falling, partial curve]
9 | CCOC(=O)/C=C/C(=O)Nc1ccc(S(=O)(=O)N2CCCCCC2)cc1 | 35.5 µM [falling, partial curve] | 31.6 µM [falling, partial curve]
10 | O=C(NCc1ccccc1)c1ccc(NC(=O)c2nsc3ccccc23)cc1 | 0.316 µM [rising, full curve, poor fit] | 
11 | Cc1nc2ccccn2c1C(=O)NCc1ccc2c(c1)OCO2 |  | 15.8 µM [rising, partial curve]
12 | CCOc1cccc(CC(=O)Nc2ccc3nc(N4CCCCC4)cc(C)c3c2)c1OCC |  | 7.08 µM [rising, full curve, poor fit]
13 | COc1ccc(-n2c(C)cc(-c3csc(NC(=O)c4ccc(S(=O)(=O)N(C)C)cc4)n3)c2C)cc1 | 17.8 µM [rising, partial curve, poor fit] | 15.8 µM [rising, partial curve]
14 | CC(c1ccon1)N(C)Cc1cn[nH]c1-c1ccc(-c2ccccc2)cc1 (stereo unspecified) | 35.5 µM [falling, partial curve] | 35.5 µM [falling, single point]
15 | O=C(CN1C(=O)C2CCCCN2c2ccc(C(=O)N3CCCC3)cc21)NCc1cccc(Cl)c1 (stereo unspecified) | 6.31 µM [falling, partial curve, poor fit] | 
16 | COc1cc2c(cc1NC(=O)/C=C/c1ccccc1)oc1ccccc12 | 12.6 µM [rising, partial curve] | 12.6 µM [rising, partial curve]
17 | C=CCNC(=O)c1cc(C(=O)C(C)c2ncc(C(F)(F)F)cc2Cl)c[nH]1 (stereo unspecified) |  | 35.5 µM [falling, partial curve, poor fit]
18 | CC(=O)[C@H]1CC[C@H]2[C@@H]3C[C@H](C)C4=CC(=O)CC[C@]4(C)[C@H]3[C@@H](O)C[C@]12C | 0.158 µM [rising, partial curve, poor fit] | 
19 | Cc1ccc(Cl)c2sc(NC(=O)CS(=O)(=O)c3ccc(Cl)cc3)nc12 | 35.5 µM [falling, single point] | 2.82 µM [falling, partial curve, poor fit]
20 | COc1cc2ccccc2cc1C(=O)NC(=S)Nc1cccc(C(=O)O)c1 |  | 35.5 µM [falling, single point]
21 | CCC(=O)Nc1nonc1-c1nc2ccccc2n1Cc1cccc2ccccc12 | 25.1 µM [falling, single point] | 
22 | CCOC(=O)OC(C)OC1=C(C(=O)Nc2ccccn2)N(C)S(=O)(=O)c2ccccc21 (stereo unspecified) | 5.62 µM [rising, single point] | 3.98 µM [rising, full curve, poor fit]
23 | O=S1(=O)C=CC(Sc2nc3ccccc3[nH]2)C1 (stereo unspecified) | 15.8 µM [falling, single point] | 35.5 µM [falling, single point]
24 | Cc1c(C(=O)NCC2COc3ccccc3O2)oc2ccc(S(=O)(=O)N3CC(C)CC(C)C3)cc12 (stereo unspecified) | 10 µM [rising, partial curve, poor fit] | 11.2 µM [rising, partial curve]
25 | CCN(CC)C1=CC2=CC(=C(C#N)C#N)CCC2CC1 (stereo unspecified) | 0.251 µM [falling, full curve] | 0.447 µM [falling, full curve]
26 | Cc1ccn(CC(=O)N/N=C/c2cc([N+](=O)[O-])ccc2O)n1 | 17.8 µM [rising, partial curve] | 22.4 µM [rising, single point]
27 | CCOC(=O)C1CCCN(C(=O)C(C)(C)Oc2ccc(Cl)cc2)C1 (stereo unspecified) | 0.02 µM [falling, full curve, poor fit] | 0.141 µM [falling, full curve, poor fit]

Row | SMILES | AC50 [1] | AC50 [2]
28 | CC(C)CC1c2[nH]c3ccccc3c2CCN1C(=O)CCC(=O)N(C)C (stereo unspecified) | 22.4 µM [falling, single point] | 
29 | Clc1ccc(-c2c[n+](Cc3cccc(Cl)c3)c3n2CCC3)cc1 | 12.6 µM [rising, single point] | 15.8 µM [rising, partial curve]
30 | COc1ccc(-c2[nH]c(-c3cc(OC)c4c(c3)OCO4)nc2-c2ccccc2)cc1 |  | 20 µM [rising, partial curve]
31 | CNC(=O)c1cccnc1Nc1cccc(C(F)(F)F)c1 |  | 1.12 µM [rising, full curve, poor fit]
32 | COc1ccc(NS(=O)(=O)c2ccc(NC(=O)Cc3cccs3)cc2)cc1 | 14.1 µM [rising, single point] | 20 µM [rising, partial curve]
33 | O=C(Nc1ccc(N2CCN(C(=O)c3ccco3)CC2)c(Cl)c1)c1cc2ccccc2o1 | 14.1 µM [falling, partial curve] | 3.55 µM [falling, partial curve]
34 | COc1ccc(Cn2nnnc2C(C(C)C)N2CCc3ccccc32)cc1 (stereo unspecified) | 12.6 µM [rising, single point] | 
35 | N#Cc1c(NC(=O)Cn2cnc3ccccc3c2=O)oc(-c2ccccc2)c1-c1ccccc1 | 14.1 µM [rising, partial curve] | 
36 | COc1ccccc1N1CCN(c2csc3ccc(Cl)cc3c2=O)CC1 | 0.794 µM [falling, full curve] | 
37 | Cc1c(N=Cc2c(O)n(Cc3ccco3)c(=O)c3ccccc23)c(=O)n(-c2ccccc2)n1C | 5.01 µM [rising, partial curve, poor fit] | 2.24 µM [rising, full curve]
38 | N#C/C(=C(/O)COc1ccc(Cl)cc1)c1nc2ccccc2s1 | 35.5 µM [rising, single point] | 
39 | CCOc1ccc(NC(=O)c2ccccc2NS(=O)(=O)c2ccc(F)cc2)c([N+](=O)[O-])c1 |  | 17.8 µM [rising, partial curve, poor fit]
40 | CCc1ccc2c(c1)C1(NN=C(c3ccc(C)cc3)S1)C(=O)N2 (stereo unspecified) |  | 3.16 µM [falling, single point]
41 | O=C(Nc1ccc2c(c1)OCCO2)c1ccc(NC(=O)C2CCCO2)cc1 (stereo unspecified) |  | 11.2 µM [rising, single point]
42 | O=C1c2cccc(OCc3ccc(F)cc3)c2CCN1Cc1ccccc1 |  | 1.78 µM [rising, partial curve]
43 | CC(=O)N1c2ccccc2C(C)=CC1(C)C | 0.0316 µM [rising, full curve, poor fit] | 0.0224 µM [rising, full curve, poor fit]
44 | NC(N)=N/N=C/c1ccc(Br)cc1 | 35.5 µM [falling, single point] | 
45 | O=C(NNc1nc2ccccc2s1)c1ccc(F)cc1 | 14.1 µM [rising, single point] | 35.5 µM [rising, single point]
46 | Cc1ccc(C2=Nc3ccccc3N(CC(=O)NCc3ccc(F)cc3)C(=O)C2)cc1C | 12.6 µM [falling, single point] | 14.1 µM [falling, partial curve]
47 | COc1ccc(N(CC(=O)NC2CCCC2)C(=O)Cn2nnc(-c3ccc(C)cc3)n2)cc1 |  | 14.1 µM [rising, single point]
48 | CCn1cc(C(=O)O)c(=O)c2cnc(N3CCCC3)nc21 | 0.0282 µM [falling, full curve, poor fit] | 7.94 µM [falling, single point]
49 | Clc1ccc(OCCN2CCN(c3ncnc4sccc34)CC2)cc1 | 1.78 µM [rising, partial curve] | 0.178 µM [rising, full curve]
50 | COc1ccc(CC(=O)Nc2cccc(-c3nnc(-c4cccc(C)c4)o3)c2)cc1OC |  | 3.55 µM [rising, partial curve]
51 | COc1ccccc1C(=O)NNC(=O)CCCN1C(=O)/C(=C/c2cccs2)SC1=S |  | 6.31 µM [rising, single point]
52 | COc1cc(C(=O)Oc2ccccc2/C=N/NC(=O)c2ccc(Cl)cc2)cc(OC)c1OC |  | 20 µM [rising, single point]
53 | COc1ccc(-c2nn(-c3ccccc3)cc2/C=N/NC(=O)c2cccc(S(=O)(=O)Nc3ccccc3Cl)c2)cc1 |  | 12.6 µM [rising, partial curve, poor fit]

From no. 5 up to 6, as listed above:
Row | SMILES | AC50 [1] | AC50 [2]
5 | Cc1cccc(N2CCN(C(=O)CSCc3ccc(F)cc3)CC2)c1C | 11.2 µM [falling, partial curve] | 
6 | O=C(Cn1c(=O)oc2cc(S(=O)(=O)N3CCCC3)ccc21)N1CCN(c2ccccc2)CC1 |  | 1.78 µM [rising, partial curve, poor fit]

— PubChem BioAssay AID1487 (National Center for Advancing Translational Sciences (NCATS), 2009)
